Laboratory results published in patent US20130065226A1, “METHOD OF DETERMINING DOSE AND ADMINISTRATION OF STATIN” (TOHOKU UNIVERSITY, priority 2011, published 2013).
Where two headings read alike, the source gives them in different places.

Assays:
Racl = assay: Protein expression in HUVEC subcellular fractions: Racl (with or without proteasome inhibitor MG-132); conditions: HUVEC nucleus fraction, 24 h; atorvastatin 10 μM, pitavastatin 1 μM
[1] = Plasma concentration of statins in mice; format: in vivo; conditions: male, mouse, oral, 24 hours after last of 2-week gavage, atorvastatin 10 mg/kg/day, pravastatin 50 mg/kg/day, read-out: Plasma concentration of statin
Method: The present inventors measured the plasma concentrations of statins (atorvastatin and pravastatin) after the 2-week treatment in mice, according to Higashi et al.'s literature (Higashi, M. et al., Circ. Res. 93, 767-775 (2003)).
Furthermore, the present inventors administrated each statin by gavage for 2 weeks from the start of AngII administration ([…], 10 mg/kg/day or pravastatin, 50 mg/kg/day) to the each group of mouse. The present inventors measured plasma concentration of statins 24 hours after the last administration (Table 3).

- concentration at 24 h ([1]; AngII-infused SmgGDS+/+ mice): < 0.01 ng/mL
- concentration at 24 h ([1]; AngII-infused SmgGDS+/− mice): < 0.01 ng/mL
SMILES: CC(C)c1c(C(=O)Nc2ccccc2)c(-c2ccccc2)c(-c2ccc(F)cc2)n1CC[C@@H](O)C[C@@H](O)CC(=O)O [atorvastatin]
- intra-nuclear Racl level (Racl): decreased the intra-nuclear Racl level
